# Percent effect of library compounds

The chains behind the UniProt entries cited, without tags or fusion partners. Residues count along the entry.
UniProt Q4DA54, 1-478: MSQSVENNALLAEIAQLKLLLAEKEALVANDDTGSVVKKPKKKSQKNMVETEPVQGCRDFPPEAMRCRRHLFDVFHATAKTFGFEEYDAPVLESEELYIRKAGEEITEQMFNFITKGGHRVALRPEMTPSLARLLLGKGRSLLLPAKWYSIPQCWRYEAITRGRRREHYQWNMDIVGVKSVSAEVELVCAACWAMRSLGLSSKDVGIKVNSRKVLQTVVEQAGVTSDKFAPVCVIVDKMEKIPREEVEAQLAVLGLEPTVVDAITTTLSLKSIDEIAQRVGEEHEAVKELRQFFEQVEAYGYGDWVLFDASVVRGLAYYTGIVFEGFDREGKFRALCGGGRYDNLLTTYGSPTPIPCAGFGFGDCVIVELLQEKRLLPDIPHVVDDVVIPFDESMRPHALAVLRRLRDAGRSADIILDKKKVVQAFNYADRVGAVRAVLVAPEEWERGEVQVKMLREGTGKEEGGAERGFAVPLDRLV
UniProt P9WNZ1, whole entry: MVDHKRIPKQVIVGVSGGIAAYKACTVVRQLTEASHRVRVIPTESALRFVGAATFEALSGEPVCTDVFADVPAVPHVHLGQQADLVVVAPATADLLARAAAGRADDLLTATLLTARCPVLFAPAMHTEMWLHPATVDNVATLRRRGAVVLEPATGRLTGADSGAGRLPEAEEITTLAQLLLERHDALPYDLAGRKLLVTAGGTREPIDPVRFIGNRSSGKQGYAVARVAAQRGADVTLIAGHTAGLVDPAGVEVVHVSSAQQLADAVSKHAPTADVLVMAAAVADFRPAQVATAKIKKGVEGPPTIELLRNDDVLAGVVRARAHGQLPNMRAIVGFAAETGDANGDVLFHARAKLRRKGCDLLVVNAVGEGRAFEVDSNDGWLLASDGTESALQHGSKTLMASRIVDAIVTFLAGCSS
UniProt A4I591, 1-473: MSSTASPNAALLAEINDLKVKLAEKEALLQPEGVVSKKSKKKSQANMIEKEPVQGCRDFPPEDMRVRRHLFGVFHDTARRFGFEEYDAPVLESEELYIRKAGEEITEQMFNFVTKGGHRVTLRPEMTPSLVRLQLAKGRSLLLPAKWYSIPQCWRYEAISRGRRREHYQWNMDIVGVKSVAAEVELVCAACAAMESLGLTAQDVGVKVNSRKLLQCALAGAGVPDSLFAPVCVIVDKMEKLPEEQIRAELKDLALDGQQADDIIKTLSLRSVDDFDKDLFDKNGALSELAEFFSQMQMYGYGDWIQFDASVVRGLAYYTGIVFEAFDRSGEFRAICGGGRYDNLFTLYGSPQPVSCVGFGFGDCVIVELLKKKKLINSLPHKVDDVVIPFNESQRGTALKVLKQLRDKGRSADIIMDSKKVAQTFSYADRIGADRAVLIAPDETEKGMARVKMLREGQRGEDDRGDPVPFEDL

A: 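Enzyme assay of histidyl-tRNA synthetase; the read-out is not stated. Target: Histidine-tRNA ligase, Trypanosoma cruzi CL Brener (UniProt Q4DA54). Concentration: 30 µM. Direction is inferred from retests: higher values go with stronger inhibition. Of about 69,000 compounds tested this way, about 31 (0.045%) reached 50% or more in at least one test.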
B: 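Coenzyme A biosynthesis protein CoaBC, Mycobacterium tuberculosis (UniProt P9WNZ1). Enzyme assay of CoaBC with a phosphate dye (Biomol Green) read at 650 nm. Tested at 30 µM. Direction is inferred from only a few compounds that gave an IC50; most scored high, so higher reads as stronger inhibition. Most strong results did not repeat in a second test. Size under these conditions: about 67,000 compounds, about 40 of them at 50% or above in at least one test.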
C: 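Enzyme assay of histidyl-tRNA synthetase; the read-out is not stated. Target: Histidine-tRNA ligase, Leishmania infantum (UniProt A4I591). Compounds at 30 µM. The record gives no direction; compounds that gave an IC50 in retests scored well above the rest, so higher reads as stronger inhibition. The assay is labelled LdHisRS but filed under L. infantum. Of about 69,000 compounds tested this way, about 410 (0.6%) reached 50% or more in at least one test.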

Values are the deposited “Percent Effect”, in %. The record does not define 0% and 100%; most values in the screen are far below 50% and negative numbers occur (in some assays of this library far below -100). Compounds were drawn at random from those tested, without regard to their results.

With C[C@H](NC(=O)N1CCN(c2ccc(Cl)cc2)CC1)C(=O)N1CCSCC1 the screen gave A: 1.205%; B: -1.018%; C: 10.26%.
With O=S(=O)(CCN1CCN(c2ccccc2O)CC1)c1ccc(Br)cc1 the screen gave A: 4.255%; B: -46.52%; C: 24.29%.
With CCCc1cc(N2CCCC2Cn2nc(C)nc2C)n2ncnc2n1 (stereo not shown) the screen gave A: 5.263%; C: 9.167%.
With CCc1nc(C2CCCN2Cc2cc(C)nc3ccccc23)no1 (stereo not shown) the screen gave A: 11.37%; B: 6.351%; C: 34.86%.
With CCOc1ccc(CN2CC[C@](C)(O)C(C)(C)C2)cn1 the screen gave A: 4.545%; B: -0.6046%; C: 3.226%.
With CC(C)n1nnnc1-c1ccc(NC(=O)CC(F)(F)F)cc1F the screen gave A: 1.554%; B: -19.79%; C: -1.124%.
With COc1ccc(CN2C[C@H]3CCC[C@@H](CN(C)C4CC4)[C@H]3C2)cn1 the screen gave A: 4.813%; B: -25.83%; C: 5.983%.
With N#Cc1ccc(N2CCCC(CO)(CCOc3ccccc3)C2)nc1 (stereo not shown) the screen gave A: -0.5025%; B: 1.327%; C: 13.6%.
With CSCCC1c2nc[nH]c2CCN1Cc1cncn1C (stereo not shown) the screen gave A: 13.79%; B: 6.765%; C: 16.13%.
With Cc1nnc2n1CCN(C(=O)c1cn(-c3ccccc3Cl)nn1)C2 the screen gave A: 4.959%; B: -6.667%; C: 11.43%.
With CC(=O)N1C[C@H](NC(=O)c2csc(C(C)C)c2)[C@@H](C(C)C)C1 the screen gave A: 5.882%; B: 5.897%; C: 5.556%.
With Cc1ccsc1CN(c1nc(CCN)nc2ccccc12)C1CC1 the screen gave A: 30.86%; B: 7.125%; C: 45.16%.
With CN1CC(C(=O)NCc2cccnc2OCc2ccccc2)CC1=O (stereo not shown) the screen gave A: -17.24%; B: 6.646%; C: 22.08%.
With CCN(Cc1ccc(Cl)s1)S(=O)(=O)CCOC the screen gave A: -7.563%; B: 6.452%; C: -8.772%.
With CCNC(=O)N(C)C(c1cccc(F)c1)c1ccccn1 (stereo not shown) the screen gave A: 2.29%; B: 3.133%; C: 13.7%.
With Cn1cc(NC(=O)c2cccc(Cl)c2)c(=O)n(C)c1=O the screen gave A: 5.195%; C: -2.857%.
With O=C(CSc1ccncc1)NC1CC(=O)N(CCc2ccccc2)C1 (stereo not shown) the screen gave A: 3.093%; B: 4.922%; C: 10.34%.
With O=C(CC1CCCCC1)NC1CCCCNC1=O (stereo not shown) the screen gave A: 8.571%; B: 3.823%; C: 9.615%.
With Cc1nc2ccccc2nc1CN1CCOC(Cn2cccn2)C1 (stereo not shown) the screen gave A: 8.883%; B: 8.571%; C: 17.54%.
With COc1cc2c(cc1-c1nc3c(cnn3C(C)C)[nH]1)OCO2 the screen gave A: 6.358%; B: -0.8264%; C: 25.33%.
With CC(C)CN1CCCC1c1ccc(C(=O)Nc2cccnc2)s1 (stereo not shown) the screen gave A: 20.23%; B: 6.198%; C: 33.33%.
With CCOc1ccccc1OC1CCN(C(=O)c2c[nH]nn2)CC1 the screen gave A: 7.602%; B: -4.592%; C: 16.36%.
With CCOCC(=O)NC1(c2cccc(Br)c2)CC1 the screen gave A: 5.833%; B: -7.889%; C: -11.54%.
With COc1cc(N2CCCC(c3nccn3Cc3cscn3)C2)nc(N)n1 (stereo not shown) the screen gave A: 3.306%; B: -4.386%; C: 20.95%.
With Cc1ccccc1CNc1nc(O)cc(C2CC(=O)N(C)C2)n1 (stereo not shown) the screen gave A: 7.027%; B: 3.056%; C: 19.44%.
With NC(=O)CN1CCc2c(Br)ccc(F)c2C1 the screen gave A: 6.077%; B: 1.146%; C: 5.181%.
With CN(CCC(F)(F)F)C(=O)[C@H]1CSCN1C(=O)OC(C)(C)C the screen gave A: 0.8264%; B: -5.33%; C: 13.46%.
With O=C(Nc1ccccc1)N1CCN(Cc2noc(C3CC3)n2)CC1 the screen gave A: 0%; B: 2.417%; C: 2.609%.
With CN1CC[C@]2(CN(C(=O)c3ccc[nH]3)C[C@H]2c2ccccc2)C1=O the screen gave A: 3.226%; B: 5.285%; C: 19.3%.
With Cc1cnn(CCNC(C)C(=O)NCCc2cccs2)c1 (stereo not shown) the screen gave A: -1.911%; C: -7.042%.

Repeated from the top, 2 entries:

C[C@H](NC(=O)N1CCN(c2ccc(Cl)cc2)CC1)C(=O)N1CCSCC1 gave A: 1.205%; B: -1.018%; C: 10.26%.
O=S(=O)(CCN1CCN(c2ccccc2O)CC1)c1ccc(Br)cc1 gave A: 4.255%; B: -46.52%; C: 24.29%.

Source: ChEMBL document CHEMBL3988442, “University of Dundee, Small-Polar-MMV Screening Library” (2021).